In paper PMC9172071, “Peach fruit PpNAC1 activates PpFAD3-1 transcription to provide ω-3 fatty acids for the synthesis of short-chain flavor volatiles”:

Experiments:
[1] = target: T1, GST-PpNAC1 (Prunus persica (peach)) (UniProt M5WG30); experiment: EMSA; conditions: LightShift Chemiluminescent EMSA kit (Thermo Fisher); pH and temperature not stated (refers to previous study); recombinant protein; residues 1-363; protein details: GST (N-terminal, pGEX-4T-1); label: 3' biotin
T1 sequence (looked up): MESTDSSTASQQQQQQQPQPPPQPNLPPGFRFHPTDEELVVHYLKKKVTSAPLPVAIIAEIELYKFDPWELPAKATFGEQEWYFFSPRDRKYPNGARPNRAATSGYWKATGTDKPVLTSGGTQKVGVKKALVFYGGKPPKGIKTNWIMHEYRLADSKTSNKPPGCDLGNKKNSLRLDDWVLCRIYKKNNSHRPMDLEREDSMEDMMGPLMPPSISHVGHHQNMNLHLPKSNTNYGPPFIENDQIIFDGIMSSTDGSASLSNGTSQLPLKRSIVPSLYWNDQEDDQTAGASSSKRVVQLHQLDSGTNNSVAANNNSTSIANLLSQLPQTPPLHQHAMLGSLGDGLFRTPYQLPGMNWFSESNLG

[2] = target: T1, GST-PpNAC1 (Prunus persica (peach)); experiment: competition EMSA; conditions: LightShift Chemiluminescent EMSA kit (Thermo Fisher); pH and temperature not stated (refers to previous study); recombinant protein; residues 1-363; protein details: GST (N-terminal, pGEX-4T-1)

AACCCCAAACTTGCGTGCAAAGTAACTGGTG (double strand) [Probe1 (PpFAD3-1 promoter NACBS, biotin)]
binding result [1]: binds

AACCCCAAACTTGCGTGCAAAGTAACTGGTG (double strand) [Probe1 cold (unlabeled competitor)]
binding result [2]: binds

AGCTTTCTGGAGCAAGTAAATGGTTTTCAA (double strand) [Probe2 (PpFAD3-1 promoter NACBS, biotin)]
binding result [1]: no binding

For part of these data: Negatives hold for the conditions tested. At least one verdict rests on a figure or table, not on a statement of the authors. Where a protein sequence is shown, tags need not be part of it. The exact form of at least one protein or probe is not confirmed.
